The source gives many values for each of these; only a part stands here.
System: HEK293T nuclear lysates
Assay: SILAC‐based pull‐down proteomics H4K5acK8ac/H4K5 (probes 8/5)
Format: binding, human
Details: for A6 log2 (H4K5ac8ac/H4K5): replicate A6; for B6 log2 (H4K5ac8ac/H4K5): replicate B6
[1] = Uncharacterized protein (A0A1W2PNV4)

probe 8: H4K5acK8ac peptide probe with photo‐arginine R(dz) and K(biotin) (SGRGKGGKGLGKGGK; photo-arginine R(dz) at 3; acetyl-lysine at 5; acetyl-lysine at 8; K(biotin) at 15)
A6 log2 (H4K5ac8ac/H4K5) [1]: -0.0618
B6 log2 (H4K5ac8ac/H4K5) [1]: 0.1865
A6 log2 (H4K5ac8ac/H4K5) (protein ACAT1 (A0A5F9ZHJ7)): 0.2924
B6 log2 (H4K5ac8ac/H4K5) (protein ACAT1 (A0A5F9ZHJ7)): 0.1518
A6 log2 (H4K5ac8ac/H4K5) (protein ALDOA (P04075)): 0.1612
B6 log2 (H4K5ac8ac/H4K5) (protein ALDOA (P04075)): 0.1759
A6 log2 (H4K5ac8ac/H4K5) (protein ATF7IP (Q6VMQ6)): 0.2905
B6 log2 (H4K5ac8ac/H4K5) (protein ATF7IP (Q6VMQ6)): 0.1962
A6 log2 (H4K5ac8ac/H4K5) (protein ATP1A1 (P05023)): 0.2256
B6 log2 (H4K5ac8ac/H4K5) (protein ATP1A1 (P05023)): 0.1538
A6 log2 (H4K5ac8ac/H4K5) (protein Asun (Q9NVM9)): -0.214
B6 log2 (H4K5ac8ac/H4K5) (protein Asun (Q9NVM9)): 0.121
A6 log2 (H4K5ac8ac/H4K5) (protein CAND1 (Q86VP6)): -0.04551
B6 log2 (H4K5ac8ac/H4K5) (protein CAND1 (Q86VP6)): 0.139
A6 log2 (H4K5ac8ac/H4K5) (protein CAPZB (B1AK87)): 0.4345
B6 log2 (H4K5ac8ac/H4K5) (protein CAPZB (B1AK87)): 0.1041
A6 log2 (H4K5ac8ac/H4K5) (protein CAST (E9PCH5)): -0.07117
B6 log2 (H4K5ac8ac/H4K5) (protein CAST (E9PCH5)): 0.1827
A6 log2 (H4K5ac8ac/H4K5) (protein CD2AP (Q9Y5K6)): 0.3843
B6 log2 (H4K5ac8ac/H4K5) (protein CD2AP (Q9Y5K6)): 0.104
A6 log2 (H4K5ac8ac/H4K5) (protein CLTC (Q00610)): -0.7564
B6 log2 (H4K5ac8ac/H4K5) (protein CLTC (Q00610)): 0.2198
A6 log2 (H4K5ac8ac/H4K5) (protein COPB2 (P35606)): 0.3347
B6 log2 (H4K5ac8ac/H4K5) (protein COPB2 (P35606)): 0.195
A6 log2 (H4K5ac8ac/H4K5) (protein CPSF4 (O95639)): -0.06181
B6 log2 (H4K5ac8ac/H4K5) (protein CPSF4 (O95639)): 0.1145
A6 log2 (H4K5ac8ac/H4K5) (protein CTBP2 (P56545)): 0.4559
B6 log2 (H4K5ac8ac/H4K5) (protein CTBP2 (P56545)): 0.2056
A6 log2 (H4K5ac8ac/H4K5) (protein CTPS1 (B4E1E0)): 0.191
B6 log2 (H4K5ac8ac/H4K5) (protein CTPS1 (B4E1E0)): 0.1554
A6 log2 (H4K5ac8ac/H4K5) (protein DDB1 (Q16531)): -0.1673
B6 log2 (H4K5ac8ac/H4K5) (protein DDB1 (Q16531)): 0.08721
A6 log2 (H4K5ac8ac/H4K5) (protein DDX5 (J3KTA4)): 0.1359
B6 log2 (H4K5ac8ac/H4K5) (protein DDX5 (J3KTA4)): 0.1808
A6 log2 (H4K5ac8ac/H4K5) (protein DDX17 (A0A1X7SBZ2)): 0.037
B6 log2 (H4K5ac8ac/H4K5) (protein DDX17 (A0A1X7SBZ2)): 0.182
A6 log2 (H4K5ac8ac/H4K5) (protein DDX39B (Q13838)): -0.002674
B6 log2 (H4K5ac8ac/H4K5) (protein DDX39B (Q13838)): 0.1671
A6 log2 (H4K5ac8ac/H4K5) (protein DENR (O43583)): 0.114
B6 log2 (H4K5ac8ac/H4K5) (protein DENR (O43583)): 0.1523
A6 log2 (H4K5ac8ac/H4K5) (protein DFFA (O00273)): -0.2825
B6 log2 (H4K5ac8ac/H4K5) (protein DFFA (O00273)): 0.1945
A6 log2 (H4K5ac8ac/H4K5) (protein DIS3 (G3V1J5)): 0.07062
B6 log2 (H4K5ac8ac/H4K5) (protein DIS3 (G3V1J5)): 0.1019
A6 log2 (H4K5ac8ac/H4K5) (protein DNMT1 (P26358)): 0.2483
B6 log2 (H4K5ac8ac/H4K5) (protein DNMT1 (P26358)): 0.1378
A6 log2 (H4K5ac8ac/H4K5) (protein DYNC1I2 (Q13409)): -0.08936
B6 log2 (H4K5ac8ac/H4K5) (protein DYNC1I2 (Q13409)): 0.1717
A6 log2 (H4K5ac8ac/H4K5) (protein EEF1B2 (P24534)): -0.1564
B6 log2 (H4K5ac8ac/H4K5) (protein EEF1B2 (P24534)): 0.08965
A6 log2 (H4K5ac8ac/H4K5) (protein EIF2S3 (P41091)): -0.0417
B6 log2 (H4K5ac8ac/H4K5) (protein EIF2S3 (P41091)): 0.1741
A6 log2 (H4K5ac8ac/H4K5) (protein EIF4H (Q15056)): 0.0492
B6 log2 (H4K5ac8ac/H4K5) (protein EIF4H (Q15056)): 0.1409
A6 log2 (H4K5ac8ac/H4K5) (protein EXOSC8 (Q96B26)): 0.7219
B6 log2 (H4K5ac8ac/H4K5) (protein EXOSC8 (Q96B26)): 0.1391
A6 log2 (H4K5ac8ac/H4K5) (protein FAM120B (Q96EK7)): 0.6348
B6 log2 (H4K5ac8ac/H4K5) (protein FAM120B (Q96EK7)): 0.1448
A6 log2 (H4K5ac8ac/H4K5) (protein FLNA (P21333)): 0.03026
B6 log2 (H4K5ac8ac/H4K5) (protein FLNA (P21333)): 0.1272
A6 log2 (H4K5ac8ac/H4K5) (protein FSCN1 (Q16658)): 0.07927
B6 log2 (H4K5ac8ac/H4K5) (protein FSCN1 (Q16658)): 0.1021
A6 log2 (H4K5ac8ac/H4K5) (protein FUBP3 (Q96I24)): 0.2633
B6 log2 (H4K5ac8ac/H4K5) (protein FUBP3 (Q96I24)): 0.1016
A6 log2 (H4K5ac8ac/H4K5) (protein GLUL (P15104)): 0.2476
B6 log2 (H4K5ac8ac/H4K5) (protein GLUL (P15104)): 0.09311
A6 log2 (H4K5ac8ac/H4K5) (protein GRB10 (Q13322)): 0.5675
B6 log2 (H4K5ac8ac/H4K5) (protein GRB10 (Q13322)): 0.1899
A6 log2 (H4K5ac8ac/H4K5) (protein HNRNPK (P61978)): 0.1796
B6 log2 (H4K5ac8ac/H4K5) (protein HNRNPK (P61978)): 0.1868
A6 log2 (H4K5ac8ac/H4K5) (protein HSPA4 (A0A087WYC1)): 0.08327
B6 log2 (H4K5ac8ac/H4K5) (protein HSPA4 (A0A087WYC1)): 0.1794
A6 log2 (H4K5ac8ac/H4K5) (protein IRF2BP2 (Q7Z5L9)): 0.2789
B6 log2 (H4K5ac8ac/H4K5) (protein IRF2BP2 (Q7Z5L9)): 0.189
A6 log2 (H4K5ac8ac/H4K5) (protein JUN (P05412)): 0.3522
B6 log2 (H4K5ac8ac/H4K5) (protein JUN (P05412)): 0.182
A6 log2 (H4K5ac8ac/H4K5) (protein KIF2C (Q99661)): 0.1411
B6 log2 (H4K5ac8ac/H4K5) (protein KIF2C (Q99661)): 0.1836
A6 log2 (H4K5ac8ac/H4K5) (protein KIF4A (O95239)): -0.1665
B6 log2 (H4K5ac8ac/H4K5) (protein KIF4A (O95239)): 0.1038
A6 log2 (H4K5ac8ac/H4K5) (protein KPNB1 (Q14974)): -0.1523
B6 log2 (H4K5ac8ac/H4K5) (protein KPNB1 (Q14974)): 0.1373
A6 log2 (H4K5ac8ac/H4K5) (protein LASP1 (Q14847)): 0.0311
B6 log2 (H4K5ac8ac/H4K5) (protein LASP1 (Q14847)): 0.1023
A6 log2 (H4K5ac8ac/H4K5) (protein LBR (A0A494C1L1)): 0.1625
B6 log2 (H4K5ac8ac/H4K5) (protein LBR (A0A494C1L1)): 0.1824
A6 log2 (H4K5ac8ac/H4K5) (protein LETM1 (O95202)): 0.6107
B6 log2 (H4K5ac8ac/H4K5) (protein LETM1 (O95202)): 0.1117
A6 log2 (H4K5ac8ac/H4K5) (protein LMNB1 (P20700)): 0.2466
B6 log2 (H4K5ac8ac/H4K5) (protein LMNB1 (P20700)): 0.1814

Source: publication PMC11005723, “Development of Complementary Photo‐arginine/lysine to Promote Discovery of Arg/Lys hPTMs Interactomes” (Advanced Science, 2024)
